Source: paper PMC10899256
These are yes or no findings as the source states them, for the method shown. Binding seen in cells or lysates may run through a third protein. Here binding means that the protein was enriched with, or labelled near, the bait; the list need not be complete.

By UniProt entry, the sequences of proteins in these tests, tags left out. Where a name states a change or a piece, a line headed by the entry shows the natural chain unless it says otherwise. Chains listed by the source or under a name are the forms on record and can include a tag or linker.
GST-TBC1D23 (full-length TBC1D23, 1–684) (Q9NUY8, form named): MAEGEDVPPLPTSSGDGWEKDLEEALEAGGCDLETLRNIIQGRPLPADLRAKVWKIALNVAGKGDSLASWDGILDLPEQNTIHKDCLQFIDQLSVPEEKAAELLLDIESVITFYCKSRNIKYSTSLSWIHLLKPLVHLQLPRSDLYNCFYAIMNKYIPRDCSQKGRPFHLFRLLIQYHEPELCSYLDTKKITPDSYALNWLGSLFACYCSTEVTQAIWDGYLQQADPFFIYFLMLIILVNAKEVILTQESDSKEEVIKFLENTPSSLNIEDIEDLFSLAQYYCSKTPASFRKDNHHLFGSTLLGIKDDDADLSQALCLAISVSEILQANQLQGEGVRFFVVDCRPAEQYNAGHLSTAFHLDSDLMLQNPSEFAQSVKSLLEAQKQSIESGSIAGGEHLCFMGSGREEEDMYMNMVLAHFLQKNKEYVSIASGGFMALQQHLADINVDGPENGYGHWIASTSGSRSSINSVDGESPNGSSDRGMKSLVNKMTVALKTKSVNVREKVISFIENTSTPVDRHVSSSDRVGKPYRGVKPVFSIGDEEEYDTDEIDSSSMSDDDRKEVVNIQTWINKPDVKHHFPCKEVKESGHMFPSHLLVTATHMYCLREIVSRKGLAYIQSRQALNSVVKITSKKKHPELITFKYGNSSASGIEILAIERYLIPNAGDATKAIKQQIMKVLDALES

Target: GST-TBC1D23 (full-length TBC1D23, 1–684) (human) (UniProt Q9NUY8)
Test: affinity purification with mass spectrometry; GST-TBC1D23 versus GST vector in transfected HEK293T; NETN buffer, GST beads 2 h at 4 °C, eluted with 10 mM GSH, SDS-PAGE, in-gel trypsin digest, LC-MS/MS

B1: golgin-97, endogenous in HEK293T (protein, UniProt Q92805 1-767)
chain: MFAKLKKKIAEETAVAQRPGGATRIPRSVSKESVASMGADSGDDFASDGSSSREDLSSQLLRRNEQIRKLEARLSDYAEQVRNLQKIKEKLEIALEKHQDSSMRKFQEQNETFQANRAKMAEGLALALARKDQEWSEKMDQLEKEKNILTAQLQEMKNQSMNLFQRRDEMDELEGFQQQELSKIKHMLLKKEESLGKMEQELEARTRELSRTQEELMNSNQMSSDLSQKLEELQRHYSTLEEQRDHVIASKTGAESKITALEQKEQELQALIQQLSIDLQKVTAETQEKEDVITHLQEKVASLEKRLEQNLSGEEHLQELLKEKTLAEQNLEDTRQQLLAARSSQAKAINTLETRVRELEQTLQASEEQLQQSKGIVAAQETQIQELAAANQESSHVQQQALALEQQFLERTQALEAQIVALERTRAADQTTAEQGMRQLEQENAALKECRNEYERSLQNHQFELKKLKEEWSQREIVSVAMAQALEEVRKQREEFQQQAANLTAIIDEKEQNLREKTEVLLQKEQEILQLERGHNSALLQIHQLQAELEALRTLKAEEAAVVAEQEDLLRLRGPLQAEALSVNESHVTSRAMQDPVFQLPTAGRTPNGEVGAMDLTQLQKEKQDLEQQLLEKNKTIKQMQQRMLELRKTLQKELKIRPDNELFEVREKPGPEMANMAPSVTNNTDLTDAREINFEYLKHVVLKFMSCRESEAFHLIKAVSVLLNFSQEEENMLKETLEYKMSWFGSKPAPKGSIRPSISNPRIPWS
- binding: binds
